In patent publication EP3727588B1, “ACTIVATOR PEPTIDES OF THE ENZYME ADAM 10 AND RELATED USES IN THE TREATMENT OF ALZHEIMER'S DISEASE” (UNIVERSITA' DEGLI STUDI DI MILANO, priority 2017, dated 2019):
Results are given in words; binding and its absence hold for the method and conditions named. In cells and extracts the contact can be indirect. Some results given as binding are weak or reduced against the parent protein; the word gives no strength.

The chains behind the UniProt entries cited, without tags or fusion partners. Residues count along the entry.
UniProt P84091: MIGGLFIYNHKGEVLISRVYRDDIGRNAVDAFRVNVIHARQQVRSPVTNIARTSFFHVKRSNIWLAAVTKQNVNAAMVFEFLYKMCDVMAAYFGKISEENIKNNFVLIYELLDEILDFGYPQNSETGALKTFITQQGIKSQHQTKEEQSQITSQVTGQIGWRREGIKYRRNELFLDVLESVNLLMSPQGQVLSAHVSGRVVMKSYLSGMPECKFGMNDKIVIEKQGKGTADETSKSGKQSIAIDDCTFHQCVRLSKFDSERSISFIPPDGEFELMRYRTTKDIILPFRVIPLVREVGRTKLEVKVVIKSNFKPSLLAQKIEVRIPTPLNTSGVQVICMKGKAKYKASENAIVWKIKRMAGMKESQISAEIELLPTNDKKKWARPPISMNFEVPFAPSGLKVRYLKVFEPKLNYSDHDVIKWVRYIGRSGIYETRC
UniProt Q811D0: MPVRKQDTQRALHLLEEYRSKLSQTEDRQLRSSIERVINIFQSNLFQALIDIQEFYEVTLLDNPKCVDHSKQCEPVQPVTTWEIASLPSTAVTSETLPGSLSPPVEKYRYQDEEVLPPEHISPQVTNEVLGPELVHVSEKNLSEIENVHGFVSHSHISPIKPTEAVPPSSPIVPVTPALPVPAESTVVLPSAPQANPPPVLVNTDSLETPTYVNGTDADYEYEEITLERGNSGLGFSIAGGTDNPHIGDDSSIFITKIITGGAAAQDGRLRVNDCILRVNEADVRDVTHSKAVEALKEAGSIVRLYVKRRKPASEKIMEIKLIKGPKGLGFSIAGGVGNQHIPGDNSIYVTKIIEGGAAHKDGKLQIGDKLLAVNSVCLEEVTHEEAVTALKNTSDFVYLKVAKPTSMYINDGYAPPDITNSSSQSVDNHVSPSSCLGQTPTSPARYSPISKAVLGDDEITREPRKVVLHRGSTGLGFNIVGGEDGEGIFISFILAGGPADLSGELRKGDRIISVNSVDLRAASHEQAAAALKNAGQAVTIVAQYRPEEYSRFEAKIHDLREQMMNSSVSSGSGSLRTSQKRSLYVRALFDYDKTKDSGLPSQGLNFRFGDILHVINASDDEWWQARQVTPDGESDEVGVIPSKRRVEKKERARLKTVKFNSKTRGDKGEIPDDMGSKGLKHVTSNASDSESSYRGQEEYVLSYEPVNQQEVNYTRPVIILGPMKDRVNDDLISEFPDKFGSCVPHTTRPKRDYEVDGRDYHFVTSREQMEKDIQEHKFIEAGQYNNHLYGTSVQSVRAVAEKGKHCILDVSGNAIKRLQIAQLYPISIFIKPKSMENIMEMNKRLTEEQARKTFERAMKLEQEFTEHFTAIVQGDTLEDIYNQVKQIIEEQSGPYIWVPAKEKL
UniProt P12023, residues 18-770: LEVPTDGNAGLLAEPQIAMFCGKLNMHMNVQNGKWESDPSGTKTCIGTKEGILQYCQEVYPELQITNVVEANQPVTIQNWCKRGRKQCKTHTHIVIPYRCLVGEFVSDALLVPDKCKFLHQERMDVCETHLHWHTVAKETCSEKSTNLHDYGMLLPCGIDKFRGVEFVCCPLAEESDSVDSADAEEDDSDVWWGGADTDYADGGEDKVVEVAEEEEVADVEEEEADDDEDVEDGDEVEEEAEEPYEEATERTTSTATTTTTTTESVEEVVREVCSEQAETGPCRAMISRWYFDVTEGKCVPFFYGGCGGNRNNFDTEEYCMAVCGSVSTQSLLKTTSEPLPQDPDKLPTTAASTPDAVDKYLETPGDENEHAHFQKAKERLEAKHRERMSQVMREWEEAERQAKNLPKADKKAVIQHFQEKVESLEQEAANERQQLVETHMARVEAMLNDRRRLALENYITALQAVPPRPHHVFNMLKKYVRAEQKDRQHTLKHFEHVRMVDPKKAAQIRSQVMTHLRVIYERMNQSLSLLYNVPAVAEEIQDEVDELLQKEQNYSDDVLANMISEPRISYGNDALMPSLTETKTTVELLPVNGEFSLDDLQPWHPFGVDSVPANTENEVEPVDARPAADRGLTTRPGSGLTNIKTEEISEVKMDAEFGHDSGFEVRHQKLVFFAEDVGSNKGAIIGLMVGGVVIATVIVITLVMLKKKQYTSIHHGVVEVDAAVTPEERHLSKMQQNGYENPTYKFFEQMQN
UniProt O35598, residues 215-749: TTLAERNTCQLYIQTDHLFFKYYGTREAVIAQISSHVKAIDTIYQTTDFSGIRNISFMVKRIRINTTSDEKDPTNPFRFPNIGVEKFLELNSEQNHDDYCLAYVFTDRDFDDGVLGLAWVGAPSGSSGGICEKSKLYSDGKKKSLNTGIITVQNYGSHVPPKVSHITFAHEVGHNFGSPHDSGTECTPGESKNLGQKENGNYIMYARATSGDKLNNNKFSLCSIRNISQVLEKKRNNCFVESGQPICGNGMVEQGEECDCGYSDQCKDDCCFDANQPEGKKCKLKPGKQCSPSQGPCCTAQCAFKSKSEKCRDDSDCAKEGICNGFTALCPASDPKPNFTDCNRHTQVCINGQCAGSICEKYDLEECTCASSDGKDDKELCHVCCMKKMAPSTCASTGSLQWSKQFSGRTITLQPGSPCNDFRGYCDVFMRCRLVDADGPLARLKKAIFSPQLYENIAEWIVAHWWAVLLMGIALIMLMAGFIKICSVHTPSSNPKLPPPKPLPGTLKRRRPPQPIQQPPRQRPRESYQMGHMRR

Assays:
[1] = target: µ2 subunit of AP2 (mouse) (mouse) (UniProt P84091); assay: co-IP with anti-APP antibody; mouse brain homogenate
[2] = target: SAP97 (mouse) (mouse) (UniProt Q811D0); assay: co-IP with anti-ADAM10, SAP97 blot; mouse brain homogenate

binding [1]	binding [2]	Substance
binds	–	APP (mouse) (from UniProt P12023 18-770)
–	binds	ADAM10 (mouse) (from UniProt O35598 215-749) (enzyme)
